Measurements published in PubChem BioAssay AID540276 (National Center for Advancing Translational Sciences (NCATS), 2011).
Where “and” joins values, the source holds several entries; their conditions need not be identical. Equal values may be shown once. Hit rate of the full screen: of about 300,000 compounds, about 5,400 (1.8%) were called active. Inconclusive means that the source gave no clear call. Such entries were picked first, then a sample of the others. Calls come from the whole dose curve; tested in HEK293 cells. Potencies of inconclusive entries are doubtful fits and often do not repeat. Where a structure was tested more than once in an assay, its records may differ in their call.

Assay: qHTS for inhibitors of binding or entry into cells for Marburg Virus
Conditions: Marburg virus pseudotyped entry inhibition, cell reporter; activity change, negative = inhibition: at 37.8 µM (top of the series) unless noted
% is set by controls: 0 for no effect and ±100 for the full control effect; potency is the fitted concentration of half-maximal effect.

Row | SMILES | Potency | activity change, negative = inhibition
1 | Cc1ccc(NC(=O)c2ccc3nc[nH]c3c2)cc1C | inactive | 
2 | CCCCCC(=O)N1C[C@H](n2cc(COC(=O)c3ccccc3)nn2)[C@@H](O)C[C@H]1c1ccccc1 | inconclusive: 2.5 µM [inhibitor, full curve, poor fit] | 
3 | CC(Oc1cccc(NC(=O)c2cccs2)c1)C(=O)c1ccccc1 (centres undefined) | inconclusive: 14.1 µM [inhibitor, single point] | 
4 | O=C(NCc1ccccc1)N(Cc1cc2cc3c(cc2[nH]c1=O)OCCO3)CC1CCCO1 (centres undefined) | inactive | 
5 | CCOc1ccc(-c2nnn(CC(=O)NCc3ccc(OC)cc3)n2)cc1OCC | inconclusive: 29.1 µM [inhibitor, single point] | 
6 | Cc1cc(Nc2ccccc2)n(-c2ccc(C(=O)O)cc2)n1 | inactive | 
7 | CCOc1ccc(CCNC(=O)c2ccc(CS(=O)Cc3cccc(Cl)c3)o2)cc1 (centres undefined) | inconclusive: 35.5 µM [inhibitor, single point] | 
8 | CCn1c(SCC(=O)Nc2ccc(N3CCOCC3)cc2)nnc1-c1ccco1 | inactive | 
9 | O=C(c1cc(-c2cccs2)nc2ccccc12)N1CCN(S(=O)(=O)c2ccccc2)CC1 | inconclusive: 23.1 µM [inhibitor, partial curve, poor fit] | 
10 | COc1ccccc1OCc1cc(-c2ccccc2)no1 | inconclusive: 1.41 µM [activator, partial curve, poor fit] | 
11 | Nc1c(C(=O)NC2CC2)c2nc3ccccc3nc2n1-c1ccc2c(c1)OCO2 | inactive | 
12 | CC(Sc1cn(CCNC(=O)c2ccccc2F)c2ccccc12)c1ccccc1 (centres undefined) | inconclusive: 22.4 µM [inhibitor, single point] | 
13 | CCN(CCCNC(=O)CSc1cc(=O)n(CC)c2ccccc12)c1cccc(C)c1 | inconclusive: 35.5 µM [inhibitor, single point] | 
14 | CCOC(=O)/C(C#N)=C1\Nc2ccccc2N=C1N(CC(C)C)CC(C)C | inconclusive: 29.1 µM [inhibitor, single point] | 
15 | O=C(NCc1cccnc1)/C(=C\c1ccc(-c2cccc(Cl)c2)o1)S(=O)(=O)c1ccccc1 | inconclusive: 4.47 µM [inhibitor, full curve, poor fit] | 
16 | CC1Oc2ccccc2C=C1/C=N/NC(=O)c1ccncc1 (centres undefined) | inconclusive: 4.47 µM [inhibitor, partial curve, poor fit] | 
17 | COc1ccc(C(=O)COC(=O)c2ccco2)cc1 | inactive | 
18 | Cc1ccc(C)c(OCC(=O)Nc2ccc(S(=O)(=O)Nc3onc(C)c3C)cc2)c1C | inactive | 
19 | CCCc1c(-c2ccc(O)cc2)nn(-c2ccc(O)cc2)c1-c1ccc(O)cc1 | inactive and inconclusive: 1.58 µM [inhibitor, full curve] | 
20 | CC(=O)c1ccc(N(CC(=O)NC2CCS(=O)(=O)C2)S(=O)(=O)c2ccc(C)cc2)cc1 (centres undefined) | inconclusive: 5.62 µM [inhibitor, single point] | 
21 | CC1CCCN(C(=O)c2sc3cc([N+](=O)[O-])ccc3c2Cl)C1 (centres undefined) | inactive | 
22 | CCOC(=O)CC(=O)Nc1nc2ccccc2s1 | inactive | 
23 | COc1ccc(/C=C(/NC(=O)c2ccccc2)C(=O)NCCN2CCOCC2)cc1OC | inconclusive: 25.1 µM [activator, partial curve, poor fit] | 

Row | SMILES | Potency | activity change, negative = inhibition
24 | CC(C)C(NC(=O)c1ccccc1Br)c1ccccc1 (centres undefined) | inconclusive: 2.82 µM [inhibitor, partial curve, poor fit] | 
25 | O=C(COC(=O)c1c2ccccc2cc2ccccc12)NCC(F)(F)F | inactive | 
26 | Cc1ccccc1Cc1c(C)nc2nc(SCC(=O)NCCc3ccc(Cl)cc3)nn2c1C | inactive | 
27 | CC(=N[C@@H]1CCCC[C@H]1N=C(C)c1ccccc1O)c1ccccc1O | inactive | 
28 | Cc1ccc2cc(N)ccc2n1 |  | inconclusive: 9.45% [activator] [at 46.1 µM]
29 | Cc1ccc(SCCC(=O)Nc2ccc(OCc3ccccc3)cc2)cc1 | inconclusive: 35.5 µM [activator, single point] | 
30 | CCOc1ccc(C(=O)Nc2ccc(S(=O)(=O)Nc3nc(C)cc(C)n3)cc2)cc1OC | inconclusive: 2.51 µM [activator, full curve] | 
31 | Cc1cc(C)cc(C(=O)NCC(=O)N2CCN(c3cccc(Cl)c3)CC2)c1 | inconclusive: 29.1 µM [inhibitor, single point] | 
32 | CC(=O)Nc1ccc(NC(=O)COC(=O)c2c3c(nc4ccccc24)CCN(Cc2ccccc2)C3)cc1 | inconclusive: 5.01 µM [inhibitor, full curve, poor fit] | 
33 | CSC(=CC(=O)c1ccc(F)cc1)SC | inactive | 
34 | COC(=O)c1c(C(C)=O)c(C)n(C)c1C | inconclusive: 11.2 µM [activator, partial curve] | 
35 | Cc1ccc(C)c2[nH]c(=O)c(C(c3nnnn3CCc3ccccc3)N3CCOCC3)cc12 (centres undefined) | inconclusive: 12.6 µM [inhibitor, partial curve, poor fit] | 
36 | COc1ccccc1OCC(=O)NCc1nc(-c2ccc(Cl)cc2)no1 | inactive | 
37 | O=C(CCS(=O)(=O)Cc1ccccc1F)NCc1ccccc1Cl | inactive | 
38 | Cc1ccc(C)c(N2C(=O)CC(N3CCN(Cc4ccc5c(c4)OCO5)CC3)C2=O)c1 (centres undefined) | inconclusive: 32.6 µM [activator, partial curve, poor fit] | 
39 | CN1CCN(C(=O)CN(c2ccccc2)S(=O)(=O)N(C)C)CC1 | inconclusive: 0.891 µM [inhibitor, partial curve, poor fit] | 
40 | CSc1ncccc1C(=O)NCCc1ccc(Cl)cc1 | inconclusive: 6.31 µM [activator, single point] | 
41 | COc1ccccc1NC(=O)C1CCCN1S(=O)(=O)c1ccc(Cl)cc1 (centres undefined) | inconclusive: 15.8 µM [inhibitor, single point] | 
42 | Cc1cccc(Nc2ncc3c(n2)CC(C)CC3=O)c1 (centres undefined) | inactive | 
43 | O=C(NC1CCN(Cc2ccccc2)CC1)c1ccc(Cn2c(=S)[nH]c3ccc(N4CCOCC4)cc3c2=O)cc1 | active: 2.82 µM | 
44 | Nc1ccccc1-[n+]1c(-c2ccccc2)cc(-c2ccccc2)cc1-c1ccccc1 | active: 8.91 µM | 
45 | O=c1c(-c2ccc(O)cc2)coc2cc(OC3OC(CO)C(O)C(O)C3O)ccc12 (centres undefined) | inactive | 
46 | COC(=O)CC=C[C@@H](C)[C@H](OC)c1ccccc1Br | inactive and active: 596 nM | 

Row | SMILES | Potency | activity change, negative = inhibition
47 | O=C(Nc1ccc(Cl)c(Cl)c1)c1ccncc1 | inconclusive: 20 µM [inhibitor, partial curve, poor fit] | 
48 | Cc1cnc(C(=O)OCC(=O)N2CCN(C(=O)c3ccco3)CC2)cn1 | inactive | 
49 | COc1cc(/C=C/C(C)=NNc2ccccc2)ccc1O | inconclusive: 12.6 µM [inhibitor, single point] | 
50 | CSc1ccc(S(=O)(=O)NCC(=O)OCC(=O)N2CCCC2=O)cc1[N+](=O)[O-] | inconclusive: 35.5 µM [inhibitor, single point] | 
51 | O=C(NC1(C(F)(F)F)NC(=O)N(Cc2ccco2)C1=O)c1cccs1 (centres undefined) | inactive | 
52 | C=CCNC(=O)c1ccccc1NC(=O)c1ccccc1C | inconclusive: 0.0891 µM [inhibitor, full curve, poor fit] | 
53 | O=C(c1ccc(F)cc1)N1CCN(c2ccc([N+](=O)[O-])cc2-n2cccc2)CC1 | inconclusive: 35.5 µM [inhibitor, single point] | 
54 | O=C(NCCC1CCCCC1)N1C2=C(CCCC2)SC2CCCCC21 (centres undefined) | inconclusive: 25.1 µM [inhibitor, single point] | 
55 | O=C(/C=N/O)NCCN1CCCCC1 | inconclusive: 32.6 µM [inhibitor, partial curve, poor fit] | 
56 | COc1ccc(-c2noc(CCC(=O)Nc3cc(Cl)c(OC)cc3OC)n2)cc1 | inconclusive: 25.1 µM [inhibitor, single point] | 
57 | NNC(=O)c1ccc(CSc2cccc3cccnc23)cc1 | inactive | 
58 | COc1cccc(C2C3=C(N=C4SCC(=O)N42)c2ccccc2CC3)c1OC (centres undefined) | inconclusive: 15.8 µM [inhibitor, single point] | 
59 | CCOc1ccc(Nc2nc3cc(S(=O)(=O)N(CC)CC)ccc3o2)cc1 | inconclusive: 35.5 µM [inhibitor, single point] | 
60 | CC1SC(c2ccc(Cl)cc2Cl)NC1=O (centres undefined) | inactive | 
61 | CCCCN(C)CCNC(=S)Nc1ccc2nc(N3CCN(CC)CC3)cc(C)c2c1 | inconclusive: 0.708 µM [inhibitor, full curve, poor fit] | 
62 | Cc1ccc(OC(=O)COc2ccccc2)c(-n2nc3ccccc3n2)c1 | inconclusive: 1.12 µM [activator, partial curve] | 
63 | CC(C)[C@H](NS(=O)(=O)c1cccc(Cl)c1)C(=O)OCC(=O)N1CCN(c2ccccc2)CC1 | inconclusive: 2.51 µM [inhibitor, partial curve, poor fit] | 
64 | CSc1ccccc1OCc1cc(C(=O)N(C)C(C)c2ccccn2)no1 (centres undefined) | inactive | 
65 | C=C(C)C(=O)/C=C/CCC/C=C/C(=O)OCC | inactive | 
66 | O=C1C2C3C=CC(C4CC34)C2C(=O)N1/N=C/c1ccc(-c2cccc([N+](=O)[O-])c2)o1 (centres undefined) | inconclusive: 32.6 µM [inhibitor, single point] | 
67 | CC(C)[C@H](NC(=O)OCc1ccccc1)C(=O)OCC(=O)Nc1ccc(N2CCOCC2)cc1 | inconclusive: 35.5 µM [inhibitor, single point] | 
68 | Cc1ccc2c(c1)c1c3n2CCN(C(=O)CCl)C3CCC1 (centres undefined) | inconclusive: 35.5 µM [inhibitor, partial curve, poor fit] | 
69 | Cc1cccc(NC(c2ccc(O)cc2)c2ccc3ccc(C)nc3c2O)n1 (centres undefined) | inactive | 

Shown comma-delimited: 3 of the compounds above.
Row,SMILES,Potency,"activity change, negative = inhibition"
57,NNC(=O)c1ccc(CSc2cccc3cccnc23)cc1,inactive,
58,COc1cccc(C2C3=C(N=C4SCC(=O)N42)c2ccccc2CC3)c1OC (centres undefined),"inconclusive: 15.8 µM [inhibitor, single point]",
59,CCOc1ccc(Nc2nc3cc(S(=O)(=O)N(CC)CC)ccc3o2)cc1,"inconclusive: 35.5 µM [inhibitor, single point]",
